Results published in patent publication US7592329B2, “Crystalline complexes of fluticasone-2-furoate” (Glaxo Group Limited, priority 2003, dated 2009).
Some of these results come from one statement about several compounds together. At least one compound was matched to its structure with a doubt left.

Assay: Stability of crystalline complexes on heating (loss of guest from the crystal lattice)
Format: physicochemical
Details: when subjected to heating

Molecule | temperature required to cause substantial loss of guest from the crystal lattice
6α,9α-Difluoro-17α-[(2-furanylcarbonyl)oxy]-11β-hydroxy-16α-methyl-3-oxo-androsta-1,4-diene-17β-carbothioic acid S-fluoromethyl ester crystalline complex with n-methyl-2-pyrrolidinone [Example 14] | > 95 °C
C1CCOC1.CC1CC2C3CC(F)C4=CC(=O)C=CC4(C)C3(F)C(O)CC2(C)C1(OC(=O)c1ccco1)C(=O)SCF (stereo not drawn) [Example 4, 6α,9α-Difluoro-17α-[(2-furanylcarbonyl)oxy]-1β-hydroxy-16α-methyl-3-oxo-androsta-1,4-diene-17β-carbothioic acid S-fluromethyl ester crystalline complex with tetrahydrofuran] | > 95 °C
